From patent publication US7141589B2, “Methods of inhibiting formation of vascular channels and methods of inhibiting proliferation” (The United States of America as represented by the …, priority 2001, dated 2006)
Some entries share one result that the patent states for a list of compounds.

Test system: chick aortic arch rings
Experiment: Chick aortic arch ring sprouting on Matrigel
Conditions: 72 h of incubation
Experimental: The assay was carried out as described previously for rat aortic rings (Gho et al., 1999), supra) with a slight modification. Briefly, the aortic arches were dissected from 14-day-old chick embryos, cleaned free of unwanted tissue, and cut into 0.8 mm slices. Each ring was transferred into the center of a well of a 24-well plate to which 1.5 μl of Matrigel had just been added. Ten μl of ice-cold Matrigel were added immediately to embed the ring. When the Matrigel was solidified, 500 μl of supplemented EBM-2 were added to each well. After addition of the test compounds in sextuplicate for each concentration, the plates were incubated at 37° C. with 5% CO2, and the degree of sprouting was assessed by a blinded observer after 48 and 72 h.

`c1ccc(-c2ccccn2)nc1` [2,2′-dipyridyl] was tested, and the “concentration showing a strong inhibition of sprouting” value was 50 to 100 µM.
